Laboratory results published in article PMC7794610.
These are yes or no findings as the source states them, for the method shown. In cells and extracts the contact can be indirect. Binding calls can cover weak binding; strength is not graded here. Sequences can lack the tags named with a protein.

Target: MNT (of the co-IP with REL ΔRID; construct not told) (not stated (human or mouse cDNA cloned))
Test: co-IP; REL wild type or REL lacking the RID with MNT (Supplementary Fig. S1c,d); cells and MNT construct not given

binding: binds
B1: human FLAG-REL (protein, UniProt Q04864 1-619)
chain: MASGAYNPYIEIIEQPRQRGMRFRYKCEGRSAGSIPGEHSTDNNRTYPSIQIMNYYGKGKVRITLVTKNDPYKPHPHDLVGKDCRDGYYEAEFGQERRPLFFQNLGIRCVKKKEVKEAIITRIKAGINPFNVPEKQLNDIEDCDLNVVRLCFQVFLPDEHGNLTTALPPVVSNPIYDNRAPNTAELRICRVNKNCGSVRGGDEIFLLCDKVQKDDIEVRFVLNDWEAKGIFSQADVHRQVAIVFKTPPYCKAITEPVTVKMQLRRPSDQEVSESMDFRYLPDEKDTYGNKAKKQKTTLLFQKLCQDHVETGFRHVDQDGLELLTSGDPPTLASQSAGITVNFPERPRPGLLGSIGEGRYFKKEPNLFSHDAVVREMPTGVSSQAESYYPSPGPISSGLSHHASMAPLPSSSWSSVAHPTPRSGNTNPLSSFSTRTLPSNSQGIPPFLRIPVGNDLNASNACIYNNADDIVGMEASSMPSADLYGISDPNMLSNCSVNMMTTSSDSMGETDNPRLLSMNLENPSCNSVLDPRDLRQLHQMSSSSMSAGANSNTTVFVSQSDAFEGSDFSCADNSMINESGPSNSTNPNSHGFVQDSQYSGIGSMQNEQLSDSFPYEFFQV
